## Binding screen against folded nucleic acids

Calls as published in the ROBIN set (doi:10.1002/anie.202211358).

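Compounds were printed on reactive glass slides in duplicate spots, a dye-labelled oligonucleotide was laid over them, and the fluorescence left after washing was read. The data file lists only calls. An earlier report of the laboratory on the PreQ1, TPP and SAM-II riboswitches (doi:10.1038/s41467-019-09493-3) used 1 µM RNA for 2 h and required a mean Z-score above 3 (spot signal-to-noise against the whole library), a score well above that on a control array, and duplicate spots agreeing (coefficient of variation under 100); it then also set aside compounds that hit other targets, which this list keeps. The cut-offs behind this list may differ. These are primary screening calls, not affinities; a compound without a hit may have attached poorly or may still bind in solution.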 A compound is marked 1 if it was called a hit and 0 if it was screened but was not. Compounds were drawn at random from those tested, without regard to their results. A dash means that no call is listed here.

Targets, with sequences 5′ to 3′:
T1: TPP riboswitch RNA three-way junction, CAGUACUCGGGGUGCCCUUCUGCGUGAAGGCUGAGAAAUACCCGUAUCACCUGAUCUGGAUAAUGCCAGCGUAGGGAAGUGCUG. About 24,000 compounds screened, about 160 hits.
T2: PreQ1 riboswitch RNA pseudoknot, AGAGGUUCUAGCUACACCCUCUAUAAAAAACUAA. From B. subtilis. About 24,000 compounds screened, about 170 hits.
T3: SAM-II riboswitch RNA pseudoknot, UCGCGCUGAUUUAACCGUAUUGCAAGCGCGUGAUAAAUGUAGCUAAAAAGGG. About 21,000 compounds screened, about 200 hits.

compound,T1,T2,T3
NNC(=O)CNc1ccc(Cl)cc1Br,0,0,1
COc1ccnc(N2CCN(C(=O)C3NCCc4[nH]cnc43)CC2)n1 (centres undefined),0,0,0
O=C1/C(=N\c2cccc(Cl)c2)CC(c2ccc(Cl)cc2)N1c1cccc(Cl)c1 (centres undefined),0,0,0
COc1nc(N)nc(N2CCCCC2)n1,0,0,0
C=CCNc1nc(N(C)c2ccccc2)nc(-n2ccnc2)n1,0,0,0
COc1ccc(CNc2cc(C)ccn2)cc1OC,0,0,0
CCN(CC1CCOCC1)C(=O)c1ccccc1C1CCNC1 (centres undefined),0,0,0
O=C(CSC1CCc2ccccc2NC1=O)NCC(O)c1ccccc1 (centres undefined),0,0,-
Cc1cc(C(=O)NC(CO)C2CCSCC2)c2cccc(C)c2n1 (centres undefined),0,0,0
CCOC(=O)C1CC(C)=C(C)CC1C(=O)O (centres undefined),0,0,0
Nc1nonc1-c1noc(COc2ccc(F)cc2)n1,0,0,0
CC(=O)c1ccc(Nc2nc3ccccc3n3cnnc23)cc1,0,0,0
O=C1C(Nc2ccccc2)=CC(c2ccc(O)cc2)N1c1ccccc1 (centres undefined),0,0,0
CCc1ccc(-n2nc(CO)c(C(=O)NC(C)CC)n2)cc1 (centres undefined),0,0,-
CC(C)Cc1cc(C(=O)N[C@@H]2CCNC2)n(C)n1,0,0,0
c1cncc(CNCc2ccc(OCc3ccc4c(c3)OCO4)cc2)c1,0,0,0
Cl.Cl.OC(COCCC12CC3CC(CC(C3)C1)C2)CN1CCN(C(c2ccccc2)c2ccccc2)CC1 (centres undefined),0,0,0
COc1ccc(-n2nc3cc(C)c(N)cc3n2)cc1Cl,0,0,0
Cc1ncsc1CCN(C)C(=O)c1ccc(C2CCCNC2)cc1 (centres undefined),0,0,0
COc1c(C2CC(=O)Nc3nc(N)[se]c32)cc2c(c1OC)OCO2 (centres undefined),0,0,0
COc1ccc(S(=O)(=O)[C@H]2CS(=O)(=O)C[C@@H]2NCc2ccccc2OC)cc1,0,0,-
Cc1n[nH]c(SCCNC(=O)c2cn(CCN)nn2)n1,0,0,0
O=C(O)c1ccccc1NCCc1ccc(Cl)cc1,0,0,0
Cn1c(=O)c2c(nc(NCc3ccccc3)n2CCO)n(C)c1=O,0,0,0
CCOC(=O)c1cc(Nc2ccccc2)c2cc(Cl)ccc2n1,0,0,0
CCc1ccc2nc(C)cc(C(=O)NCC(O)c3ccco3)c2c1 (centres undefined),0,0,0
COC(=O)c1sc2nc(-c3ccccc3)cc(-c3ccc(OC)cc3)c2c1N,0,0,0
O=C1Nc2ccccc2NC12CCN(CCS(=O)(=O)c1ccccc1)CC2,0,0,0
Cc1ccc2c(CNCCc3ccco3)c(C(=O)O)n(C)c2c1,0,0,-
Cc1cc(NS(=O)(=O)c2ccc(Nc3nc(-c4ccncc4)cs3)cc2)no1,0,0,0
CCCNc1cc(C)nc2cc(-c3ccccc3OC)nn12,0,0,-
CCS(=O)(=O)c1ccc(-c2cc(N)nc3[nH]ccc23)s1,0,0,0
Cc1ncc(-c2c(C#N)c(N)nc3c2CCc2c(O)cccc2-3)n1C,0,0,0
CC(=O)OCC(=O)[C@@]1(O)CC[C@H]2[C@@H]3CCC4=CC(=O)CC[C@]4(C)[C@@H]3C(=O)C[C@@]21C,0,0,0
CC(C)n1cnc2cc(NCc3ccc(Br)cc3)ccc21,0,0,0
CC(=O)O[C@]1(C(C)=O)CC[C@@H]2[C@@H]3C[C@H](C)C4=CC(=O)CC[C@]4(C)[C@H]3CC[C@@]21C,0,0,0
N#Cc1cnn(-c2cccc(Cl)c2)c1-n1cccc1,0,0,0
Cc1oncc1C(=O)Nc1ccc(C(F)(F)F)cc1,0,0,0
CCc1nnc2c3ccccc3nc(NCc3ccc(C)cc3)n12,0,0,0
Cc1cc(N)n(CC(=O)N2CCCC(C)(Cc3ccc4c(c3)OCO4)C2)n1 (centres undefined),0,0,0
CC(Cc1ccsc1)NC(=O)c1ccc2c(c1)ncn2CCO (centres undefined),0,0,0
CCC(C(=O)N1CCC2(CCC(=O)N(CCCO)C2)CC1)c1ccccc1 (centres undefined),0,0,0
Cc1cc(N)cc(C)c1OCC(=O)N1CCCC1,0,0,0
Cc1ccc(-c2noc(-c3nnn(-c4ccc(F)cc4)c3N)n2)cc1,0,0,-
CCCCCNc1nc(C)nc2c1sc1nc3c(cc12)COC(C)(C)C3,0,0,0
c1ccc2[nH]c(-c3cscn3)nc2c1,0,0,0
CCCCc1ccc(NCc2nc(-c3ccc(C)cc3)no2)cc1,0,0,0
O=C(CCN1CCCC(CO)(CC2CC2)C1)NC1CCCCC1 (centres undefined),0,0,0
COC(=O)c1ccc(Nc2cc(C)nc3c(C)cc(C)cc23)cc1,0,0,0
c1cc2c(cc1Nc1nc(N3CCCCC3)nc(N3CCCCC3)n1)OCO2,0,0,0
Cc1cc(Nc2cccc(C(=O)N3CCOCC3)c2)n2nc(-c3cccnc3)nc2n1,0,0,-
O=C([O-])c1cc(=O)c2c(OCC(O)COc3cccc4oc(C(=O)[O-])cc(=O)c34)cccc2o1,0,0,0
O=S(=O)(NCC(Nc1ccccc1)c1ccccc1)c1ccc(Cl)cc1 (centres undefined),0,0,-
O=C(OC1C[C@H]2CC[C@@H](C1)[N+]21CCCC1)C(O)(c1ccccc1)c1ccccc1.[Cl-] (some centres undefined),0,0,0
Cc1cc(C)n2c(C)nnc2c1,0,0,0
CN[C@@H](C)C(=O)N[C@H]1CN(C(=O)CC(C)C)CC[C@H]2CC[C@@H](C(=O)NC(c3ccccc3)c3ccccc3)N2C1=O,0,0,0
COc1cccc(CNc2ccc3c(c2)ncn3C(C)C)c1OC,0,0,0